# Experimental data published in the supplement of paper PMC3047530.
# ± gives the standard deviation of the averaged measurements. The list shows a part of the results. Repeats are few or missing, and single values can be far off.
# System: Geomyces destructans
# Test: growth inhibition relative to DMSO control; higher = stronger growth inhibition
# Settings: 10 µM; 15 °C; incubation time 10 days
row,SMILES,growth inhibition
1,CCOC(N)=O,5.93%
2,COc1cc(C(=O)O)c(O)c2c1OCO2,-3.8%
3,COc1ccc(-c2cc(=O)c3c(O)cc(O[C@H]4O[C@H](CO[C@@H]5O[C@@H](C)[C@H](O)[C@@H](O)[C@H]5O)[C@@H](O)[C@H](O)[C@H]4O)cc3o2)cc1,-5.81%
4,O=C1c2cccc(O)c2C(=O)c2c(O)cccc21,-21.6%
5,CC(C)NNC(=O)c1ccncc1,-35.5%
6,CCCCCCCCCCCC[C@@H](C(=O)O)[C@H](C)C(=O)O,-7.2%
7,O=C(O)c1cc(=O)c2ccccc2[nH]1,-29%
8,CN(C)CCc1c[nH]c2ccc(CS(=O)(=O)N3CCCC3)cc12,-25.8%
9,COc1cc(/C=C/CO)ccc1O,10.5%
10,CN1CCN2c3ccccc3Cc3ccccc3C2C1 (stereo not given),-9.71%
11,N[C@@H](Cc1ccc(O)c(O)c1)C(=O)O,1.93%
12,CCC(C)C(NC)C(=O)O (stereo not given),-8.63%
13,COc1ccc(-c2coc3cc(O)ccc3c2=O)c(OC)c1,-12.8%
14,O=C(O)CCC(=O)c1ccc(-c2ccccc2)cc1,-4.08%
15,O=C1c2c(O)ccc(O)c2C(=O)c2c(NCCNCCO)ccc(NCCNCCO)c21,-19%
16,C[C@@H]1O[C@@H](O[C@H]2[C@H](O[C@H]3CC[C@@]4(C)[C@@H](CC[C@]5(C)[C@@H]4CC=C4[C@@H]6CC(C)(C)CC[C@]6(C(=O)O)CC[C@]45C)[C@]3(C)CO)OC[C@H](O)[C@@H]2O)[C@H](O)[C@H](O)[C@H]1O,91.2%
17,C[C@H](CCC(=O)O)[C@H]1CC[C@H]2[C@@H]3C(=O)C[C@@H]4CC(=O)CC[C@]4(C)[C@H]3CC(=O)[C@]12C,-6.55%
18,CO[C@H]1C[C@H](O[C@@H]2/C(C)=C/C[C@@H]3C[C@@H](C[C@]4(CC[C@H](C)[C@@H](C5CCCCC5)O4)O3)OC(=O)[C@@H]3C=C(C)/C(=N/O)[C@H]4OC/C(=C\C=C\[C@@H]2C)[C@]43O)O[C@@H](C)[C@@H]1O,-6.06%
19,Cc1nc2sccn2c(=O)c1CCN1CCC(=C(c2ccc(F)cc2)c2ccc(F)cc2)CC1,-19.2%
20,C[N+](C)(C)CCOC(N)=O,-11.3%
21,COC(=O)C[C@H]1C2(C)CC34OC5(C)O[C@@]6([C@H](OC)C(OC(=O)C(C)C)[C@]7(C)C(/C(=C(/OC)C(C)C)C(=O)O[C@H]7c7ccoc7)[C@@]6(O5)[C@H](OC)[C@@]3(OC)C2OC(C)=O)[C@]14C (stereo not given in full),-9.33%
22,COC(=O)[C@H]1[C@H]2C[C@H]3c4[nH]c5cc(OC)ccc5c4CCN3C[C@H]2C[C@@H](OC(=O)c2cc(OC)c(OC)c(OC)c2)[C@@H]1OC,-1.34%
23,COc1cc(O)cc(OC)c1OC,-2.64%

row,SMILES,growth inhibition
1,COC(=O)CC1C2(C)CC34OC5(C)OC6(C7/C(=C(/O)C(C)C)C(=O)OC(c8ccoc8)C7(C)C(OC(=O)C(C)C)C(OC)C6(O5)C13C)C(OC)C4(OC)C2OC(C)=O (stereo not given),-0.794%
2,CC1(C)O[C@@H]2C[C@H]3[C@@H]4C[C@H](F)C5=CC(=O)CC[C@]5(C)[C@H]4[C@@H](O)C[C@]3(C)[C@]2(C(=O)CO)O1,-8.7%
3,CC1=CCc2c(cc3oc(C)cc(=O)c3c2O)OC1,-13.1%
4,CC1(C)CC2C1CCC1(C)OC1CCC2(C)O (stereo not given),-20.7%
5,COc1ccc(/C=C/c2cc(O)cc(O[C@@H]3O[C@H](CO)[C@@H](O)[C@H](O)[C@H]3O)c2)cc1O,-37.4%
6,NNC(=O)c1ccncc1,7.57%
7,O=C(O)c1cc2cc(F)ccc2[nH]1,-3.12%
8,CCN1CCCC1CNC(=O)c1cc(S(N)(=O)=O)ccc1OC (stereo not given),-10.2%
9,O=c1cccc2ccc(O)c(O)c2c1O,-18%
10,Cc1cccc(N(C)C(=S)Oc2ccc3ccccc3c2)c1,-24.2%
11,O=C(O)c1cccnc1,-1.55%
12,CCCCc1oc2ccccc2c1C(=O)c1cc(I)c(OCCN(CC)CC)c(I)c1,73.1%
13,O=C(Nc1ccc([N+](=O)[O-])cc1Cl)c1cc(Cl)ccc1O,-6.7%
14,CCOc1ccc(Cc2nccc3cc(OCC)c(OCC)cc23)cc1OCC,-8.37%
15,C#C[C@]1(O)CC[C@H]2[C@@H]3CCC4=Cc5oncc5C[C@]4(C)[C@H]3CC[C@@]21C,-15.7%
16,CC12CC3CC(C)(C1)CC(N)(C3)C2,-38.8%
17,CC(C)=CCc1c(O)cc2oc(C)cc(=O)c2c1O,-22.3%
18,CCC[C@@H]1C[C@@H](C(=O)N[C@@H]([C@H]2O[C@H](SC)[C@H](O)[C@@H](O)[C@H]2O)[C@@H](C)O)N(C)C1,1.77%
19,C=C1C(N)CC2CC1C2(C)C (stereo not drawn) [3-AMINO-beta-PINENE],0.285%
20,CN1CCCN=C1/C=C/c1cccs1,-14%
21,CC(C)(C)CC(C)(C)c1ccc(OCCOCC[N+](C)(C)Cc2ccccc2)cc1,78.6%
22,COc1ccc(CCC(=O)c2c(O)cc(O[C@@H]3O[C@H](CO)[C@@H](O)[C@H](O)[C@H]3O[C@@H]3O[C@@H](C)[C@H](O)[C@@H](O)[C@H]3O)cc2O)cc1O,-1.93%
23,CCCCOc1ccc(C(=O)CCN2CCCCC2)cc1,-0.422%

row,SMILES,growth inhibition
1,COc1cccc(O)c1O,-9.39%
2,Nc1nc(N)c2nc(-c3ccccc3)c(N)nc2n1,-21.4%
3,C=C1CC[C@H](O)C/C1=C/C=C1\CCC[C@]2(C)[C@@H]([C@H](C)/C=C/[C@H](C)C(C)C)CC[C@@H]12,6.96%
4,CC(C)=CCCC1(C)C=Cc2c(O)c3c(c(CC=C(C)C)c2O1)OC12C(=CCCC1C(C)(C)O[C@@]2(C/C=C(\C)C(=O)O)C(=O)O)C3=O (stereo not given in full),-13%
5,C=CC1=C(C)/C(=C/c2[nH]c(Cc3[nH]c(/C=C4\NC(=O)C(C)=C4C=C)c(C)c3CCC(=O)O)c(CCC(=O)O)c2C)NC1=O,-7.61%
6,O=C(O)c1cc(O)ccc1O,-7.25%
7,C[C@H]1[C@H]2CC[C@H]3[C@@H]4CC=C5C[C@@H](N(C)C)CC[C@]5(C)[C@H]4CC[C@]23CN1C,-16.6%
8,CC(CN(C)C)CN1c2ccccc2CCc2ccccc21 (stereo not given),-7.71%
9,COC(=O)[C@H]1[C@H]2C[C@H]3c4[nH]c5ccccc5c4CCN3C[C@H]2CC[C@@H]1O,-15.4%
10,C[C@@H]([C@H]1OC(C)(C)[C@@H](O)[C@H]1O)[C@@H]1CC[C@]2(C)C3=CC[C@H]4C(C)(C)C(=O)CC[C@]4(C)[C@H]3CC[C@@]12C,-10.6%
11,CC(C)=CCC[C@@H](C)[C@@H]1CC[C@]2(C)C3=C(CC[C@@]12C)[C@@]1(C)CC[C@H](O)C(C)(C)[C@@H]1CC3,1.81%
12,CC(C)NCC(O)COc1cccc2[nH]ccc12 (stereo not given),-3.2%
13,OC(CCN1CCCC1)(c1ccccc1)C1CCCCC1 (stereo not given),-9.96%
14,CN(Cc1cc(Br)cc(Br)c1N)C1CCCCC1,-3.47%
15,C[C@H](CS)C(=O)N1CCC[C@H]1C(=O)O,8.75%
16,CC1(C)O[C@@H]2C[C@H]3[C@@H]4C[C@H](F)C5=CC(=O)C=C[C@]5(C)[C@H]4[C@@H](O)C[C@]3(C)[C@]2(C(=O)CO)O1,-9.1%
17,COc1ccc2c(=O)cc(-c3ccccc3OC)oc2c1,-6.57%
18,COC(=O)[C@@]1(C)CCC[C@]2(C)c3ccc(O)c(C(C)C)c3CCC12 (stereo not given in full),-11.1%
19,COC(=O)/C(C)=C\CC12OC(C)(C)C3CC(C=C4C(=O)c5c(O)c6c(c(CCC(C)(C)Cl)c5OC431)OC1(C)CCC(=C(C)C)C6C1)C2=O (stereo not given),-11.8%
20,CC(C)c1c(O)ccc2c1CCC1[C@@](C)(C=O)CCC[C@]21C (stereo not given in full),-12.2%
21,COc1ccc(-c2cc(=O)c3c(OC)cc(OC)cc3o2)cc1,-21.8%
22,NCCc1ccc(O)c(O)c1,0.206%
23,CC[C@H](c1ccc(O)cc1)[C@@H](CC)c1ccc(O)cc1,-30.1%

row,SMILES,growth inhibition
1,C[C@]12CCC(=O)C=C1CC[C@@H]1[C@@H]2[C@@H](O)C[C@@]2(C)[C@H]1CC[C@]2(O)C(=O)COP(=O)(O)O,-4.65%
2,CC(=O)OCC(=O)[C@@]1(O)CC[C@H]2[C@@H]3CCC4=CC(=O)C=C[C@]4(C)[C@H]3[C@@H](O)C[C@@]21C,-17.3%
3,C/C=C(\C)C(=O)O[C@@H]1c2c(ccc3ccc(=O)oc23)OC(C)(C)[C@@H]1OC(C)=O,-8.69%
4,"CC(C)CCC[C@@H](C)[C@H]1CC[C@H]2[C@@H]3C[C@@H](O)[C@@]4(O)C[C@@H](O)CC[C@]4(C)[C@H]3CC[C@]12C [CHOLESTAN-3beta,5alpha,6beta-TRIOL]",-3.24 ± 7.5%
5,C=C1CCC2C(CC2(C)C)C(=O)CCC1O (stereo not given),-14.7%
6,NC(CO)C(=O)NNCc1ccc(O)c(O)c1O (stereo not given),-28.6%
7,C[C@H]1COc2c(N3CCN(C)CC3)c(F)cc3c(=O)c(C(=O)O)cn1c23,-24.2%
8,CN(C)CCCN1c2ccccc2CCc2ccccc21,-0.678%
9,Cc1cc(O)c2c(c1)C(=O)c1cc(O)cc(O)c1C2=O,4.82%
10,CN1CCC(OC(c2ccccc2)c2ccccc2)CC1,-3.88%
11,COc1cccc(-c2cc(=O)c3ccc(OC)cc3o2)c1,-39.8%
12,C[N+](C)(C)CCO.[Cl-],-3.71%
13,CC(C)=CCOc1cc2oc(=O)ccc2cc1O,-8.86%
14,CC(=O)O[C@@](C)(CCC=C(C)C)C1CC=C(C)CC1 (stereo not given in full),-3.05%
15,NCC[C@H](O)C(=O)N[C@@H]1C[C@H](N)[C@@H](O[C@H]2O[C@H](CN)[C@@H](O)[C@H](O)[C@H]2O)[C@H](O)[C@H]1O[C@H]1O[C@H](CO)[C@@H](O)[C@H](N)[C@H]1O,-31.1%
16,COc1ccc2c(c1)OC[C@@H](Cc1ccc(OC)c(OC)c1)[C@H]2O,3.4%
17,Cn1cnc([N+](=O)[O-])c1Sc1ncnc2[nH]cnc12,-21.4%
18,CC(C)C(=O)Nc1ccc([N+](=O)[O-])c(C(F)(F)F)c1,-8.04%
19,OCCN1C[C@H](O)[C@@H](O)[C@H](O)[C@H]1CO,-39.8%
20,CC(=O)O[C@@H]1CC2C(C)(C)C(=O)CC[C@]2(C)C2CC[C@]3(C)C(=CC(=O)O[C@H]3c3ccoc3)[C@@]21C (stereo not given in full),-2.22%
21,CC(=O)O[C@H]1C[C@@H](OC(C)=O)C(C)(C)C2CC(=O)[C@]3(C)C(CC[C@@]4(C)[C@H](c5ccoc5)OC(=O)[C@H]5O[C@]543)[C@]21C (stereo not given in full),4.26%

# Rewritten with tabs: 6 of the compounds above.
row	SMILES	growth inhibition
18	CCC[C@@H]1C[C@@H](C(=O)N[C@@H]([C@H]2O[C@H](SC)[C@H](O)[C@@H](O)[C@H]2O)[C@@H](C)O)N(C)C1	1.77%
19	C=C1C(N)CC2CC1C2(C)C (stereo not drawn) [3-AMINO-beta-PINENE]	0.285%
20	CN1CCCN=C1/C=C/c1cccs1	-14%
21	CC(C)(C)CC(C)(C)c1ccc(OCCOCC[N+](C)(C)Cc2ccccc2)cc1	78.6%
22	COc1ccc(CCC(=O)c2c(O)cc(O[C@@H]3O[C@H](CO)[C@@H](O)[C@H](O)[C@H]3O[C@@H]3O[C@@H](C)[C@H](O)[C@@H](O)[C@H]3O)cc2O)cc1O	-1.93%
23	CCCCOc1ccc(C(=O)CCN2CCCCC2)cc1	-0.422%
